{"source": "PubChem BioAssay AID504808 (Drosophila RNAi Screening Center, 2011)", "screen": "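Genes whose loss lifts activity of an E2F-responsive reporter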 (primary screen)", "system": "Drosophila S2 cells", "reagents": "long dsRNA against Drosophila genes", "measurement": "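Firefly luciferase driven by E2F sites, normalised to Renilla luciferase on the same minimal promoter, measured by plate reader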", "direction": "E2F firefly: higher = more E2F reporter activity; Renilla normaliser: higher = more normaliser reporter signal", "call rule": "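Called active if the normalised E2F reporter went up by over 50%; the cutoff is arbitrary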", "note": "The deposit covers about 21,000 reagents; this is a random part of those with a known target gene and a result. In the full data, 18 (0.084%) got an active call. 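Raw counts without plate normalisation, one of two replicates; the ratio scores behind the calls were not deposited.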 Entries without a mark were called inactive. The record does not give: the amount of reagent, the time to read-out."}
{"Target gene": "Vml", "amplicon": "DRSC17695", "E2F firefly, rep 1": 85244, "Renilla normaliser, rep 1": 2560}
{"Target gene": "Vml", "amplicon": "DRSC18529", "E2F firefly, rep 1": 1.16e5, "Renilla normaliser, rep 1": 5633}
{"Target gene": "smo", "amplicon": "DRSC00837", "E2F firefly, rep 1": 1.02e5, "Renilla normaliser, rep 1": 3998}
{"Target gene": "polyph", "amplicon": "DRSC06254", "E2F firefly, rep 1": 1.44e5, "Renilla normaliser, rep 1": 4445}
{"Target gene": "CG4554", "amplicon": "DRSC04473", "E2F firefly, rep 1": 76843, "Renilla normaliser, rep 1": 3886}
{"Target gene": "Ten-a", "amplicon": "DRSC18924", "E2F firefly, rep 1": 82861, "Renilla normaliser, rep 1": 2405}
{"Target gene": "Ten-a", "amplicon": "DRSC19496", "E2F firefly, rep 1": 47816, "Renilla normaliser, rep 1": 3763}
{"Target gene": "Ten-a", "amplicon": "DRSC19700", "E2F firefly, rep 1": 1.36e5, "Renilla normaliser, rep 1": 6784}
{"Target gene": "Ten-a", "amplicon": "DRSC19793", "E2F firefly, rep 1": 1.30e5, "Renilla normaliser, rep 1": 6102}
{"Target gene": "Ten-a", "amplicon": "DRSC19864", "E2F firefly, rep 1": 1.22e5, "Renilla normaliser, rep 1": 6337}
{"Target gene": "Ten-a", "amplicon": "DRSC19865", "E2F firefly, rep 1": 1.58e5, "Renilla normaliser, rep 1": 6318}
{"Target gene": "Ten-a", "amplicon": "DRSC20290", "E2F firefly, rep 1": 1.30e5, "Renilla normaliser, rep 1": 6065}
{"Target gene": "Gs1", "amplicon": "DRSC00753", "E2F firefly, rep 1": 80111, "Renilla normaliser, rep 1": 3360}
{"Target gene": "CG2256", "amplicon": "DRSC18220", "E2F firefly, rep 1": 1.09e5, "Renilla normaliser, rep 1": 6011}
{"Target gene": "Nrx-1", "amplicon": "DRSC16184", "E2F firefly, rep 1": 67495, "Renilla normaliser, rep 1": 2690}
{"Target gene": "CG11584", "amplicon": "DRSC19408", "E2F firefly, rep 1": 1.58e5, "Renilla normaliser, rep 1": 6262}
{"Target gene": "Corp", "amplicon": "DRSC17771", "E2F firefly, rep 1": 7895, "Renilla normaliser, rep 1": 796}
{"Target gene": "CG13088", "amplicon": "DRSC02192", "E2F firefly, rep 1": 1.40e5, "Renilla normaliser, rep 1": 5332}
{"Target gene": "Cyp9b1", "amplicon": "DRSC07389", "E2F firefly, rep 1": 1.37e5, "Renilla normaliser, rep 1": 4434}
{"Target gene": "CG6426", "amplicon": "DRSC06985", "E2F firefly, rep 1": 1.50e5, "Renilla normaliser, rep 1": 5180}
{"Target gene": "alpha-Man-Ib", "amplicon": "DRSC14418", "E2F firefly, rep 1": 1489, "Renilla normaliser, rep 1": 948}
{"Target gene": "CG13613", "amplicon": "DRSC14616", "E2F firefly, rep 1": 1.01e5, "Renilla normaliser, rep 1": 5906}
{"Target gene": "CG44838", "amplicon": "DRSC10330", "E2F firefly, rep 1": 59290, "Renilla normaliser, rep 1": 3098}
{"Target gene": "CG44838", "amplicon": "DRSC10371", "E2F firefly, rep 1": 75030, "Renilla normaliser, rep 1": 4180}
{"Target gene": "Cyp4aa1", "amplicon": "DRSC07368", "E2F firefly, rep 1": 1.46e5, "Renilla normaliser, rep 1": 4401}
{"Target gene": "MED11", "amplicon": "DRSC10739", "E2F firefly, rep 1": 72137, "Renilla normaliser, rep 1": 6506}
{"Target gene": "Marc", "amplicon": "DRSC06614", "E2F firefly, rep 1": 1.59e5, "Renilla normaliser, rep 1": 6002}
{"Target gene": "CG15771", "amplicon": "DRSC18077", "E2F firefly, rep 1": 76932, "Renilla normaliser, rep 1": 4305}
{"Target gene": "VGAT", "amplicon": "DRSC07160", "E2F firefly, rep 1": 98847, "Renilla normaliser, rep 1": 4098}
{"Target gene": "CG17104", "amplicon": "DRSC02573", "E2F firefly, rep 1": 88437, "Renilla normaliser, rep 1": 3815}
{"Target gene": "gek", "amplicon": "DRSC04688", "E2F firefly, rep 1": 95502, "Renilla normaliser, rep 1": 3262}
{"Target gene": "Spec2 (retired record)", "amplicon": "DRSC12258", "E2F firefly, rep 1": 1.27e5, "Renilla normaliser, rep 1": 6047}
{"Target gene": "CG13631", "amplicon": "DRSC14632", "E2F firefly, rep 1": 67751, "Renilla normaliser, rep 1": 2893}
{"Target gene": "CG8003", "amplicon": "DRSC10946", "E2F firefly, rep 1": 78471, "Renilla normaliser, rep 1": 3130}
{"Target gene": "CG13694", "amplicon": "DRSC00363", "E2F firefly, rep 1": 1.54e5, "Renilla normaliser, rep 1": 5845}
{"Target gene": "CG18540", "amplicon": "DRSC06767", "E2F firefly, rep 1": 1.32e5, "Renilla normaliser, rep 1": 5128}
